Source: the supplement of paper PMC11732987, “Enantioselective OTUD7B fragment discovery through chemoproteomics screening and high-throughput optimisation” (Communications Chemistry, 2025)
The list shows a part of the results. The data scatter; read single values as rough.

Sequences of proteins named here, by UniProt entry; tags and fusion partners are left off. A change or cut given only in a name is not applied to a line headed by its entry. Residues count along the entry.
UniProt A6NHR9: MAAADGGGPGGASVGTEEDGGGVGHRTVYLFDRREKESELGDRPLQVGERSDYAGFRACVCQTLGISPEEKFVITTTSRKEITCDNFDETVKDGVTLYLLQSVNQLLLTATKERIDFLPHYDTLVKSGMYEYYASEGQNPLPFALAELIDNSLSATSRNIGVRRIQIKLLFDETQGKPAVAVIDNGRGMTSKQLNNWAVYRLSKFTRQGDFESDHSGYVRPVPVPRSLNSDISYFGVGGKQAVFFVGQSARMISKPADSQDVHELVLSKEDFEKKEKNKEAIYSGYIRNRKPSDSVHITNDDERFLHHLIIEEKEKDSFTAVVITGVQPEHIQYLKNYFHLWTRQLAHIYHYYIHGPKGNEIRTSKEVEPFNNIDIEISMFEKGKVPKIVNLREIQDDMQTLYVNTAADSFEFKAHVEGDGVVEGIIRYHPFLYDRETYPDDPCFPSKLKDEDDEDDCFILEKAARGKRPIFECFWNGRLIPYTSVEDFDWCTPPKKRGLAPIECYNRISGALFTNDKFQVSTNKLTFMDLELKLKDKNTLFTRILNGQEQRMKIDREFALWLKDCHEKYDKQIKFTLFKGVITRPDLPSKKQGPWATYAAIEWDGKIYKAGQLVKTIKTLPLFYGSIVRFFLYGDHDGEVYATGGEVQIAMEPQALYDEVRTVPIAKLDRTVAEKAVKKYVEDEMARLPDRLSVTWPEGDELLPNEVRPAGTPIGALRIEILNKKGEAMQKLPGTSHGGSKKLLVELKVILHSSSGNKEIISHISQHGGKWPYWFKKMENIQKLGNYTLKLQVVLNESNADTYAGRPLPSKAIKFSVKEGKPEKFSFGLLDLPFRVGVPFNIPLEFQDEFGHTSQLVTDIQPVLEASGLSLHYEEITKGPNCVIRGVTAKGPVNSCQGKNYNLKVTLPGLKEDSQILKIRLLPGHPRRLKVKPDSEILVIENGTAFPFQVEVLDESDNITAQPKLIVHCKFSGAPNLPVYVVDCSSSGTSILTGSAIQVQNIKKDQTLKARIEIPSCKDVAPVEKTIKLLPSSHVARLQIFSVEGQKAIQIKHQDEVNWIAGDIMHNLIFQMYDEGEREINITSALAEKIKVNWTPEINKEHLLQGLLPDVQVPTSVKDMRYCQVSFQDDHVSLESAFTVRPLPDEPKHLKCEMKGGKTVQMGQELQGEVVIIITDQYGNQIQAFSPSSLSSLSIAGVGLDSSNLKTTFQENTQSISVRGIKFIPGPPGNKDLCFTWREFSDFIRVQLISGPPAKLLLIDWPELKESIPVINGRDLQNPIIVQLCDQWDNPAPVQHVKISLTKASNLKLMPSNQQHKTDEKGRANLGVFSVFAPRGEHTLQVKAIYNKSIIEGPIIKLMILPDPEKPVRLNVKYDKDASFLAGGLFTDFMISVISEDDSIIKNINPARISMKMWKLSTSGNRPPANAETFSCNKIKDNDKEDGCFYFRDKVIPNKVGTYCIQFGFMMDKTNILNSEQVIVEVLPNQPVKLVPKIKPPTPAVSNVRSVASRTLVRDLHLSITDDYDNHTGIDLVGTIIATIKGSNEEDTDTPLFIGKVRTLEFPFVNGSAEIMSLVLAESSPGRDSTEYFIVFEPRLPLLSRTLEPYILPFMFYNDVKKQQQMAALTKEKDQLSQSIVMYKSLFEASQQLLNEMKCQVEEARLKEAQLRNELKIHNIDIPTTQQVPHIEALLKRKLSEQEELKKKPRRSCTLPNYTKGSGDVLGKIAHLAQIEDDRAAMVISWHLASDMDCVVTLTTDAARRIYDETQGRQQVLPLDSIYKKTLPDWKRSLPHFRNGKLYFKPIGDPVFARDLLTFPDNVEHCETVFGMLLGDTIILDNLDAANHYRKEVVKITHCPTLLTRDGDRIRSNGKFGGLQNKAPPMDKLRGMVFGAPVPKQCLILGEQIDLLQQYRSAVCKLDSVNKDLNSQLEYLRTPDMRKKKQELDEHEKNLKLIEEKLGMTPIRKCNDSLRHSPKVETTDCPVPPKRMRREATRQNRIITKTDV
UniProt Q07617: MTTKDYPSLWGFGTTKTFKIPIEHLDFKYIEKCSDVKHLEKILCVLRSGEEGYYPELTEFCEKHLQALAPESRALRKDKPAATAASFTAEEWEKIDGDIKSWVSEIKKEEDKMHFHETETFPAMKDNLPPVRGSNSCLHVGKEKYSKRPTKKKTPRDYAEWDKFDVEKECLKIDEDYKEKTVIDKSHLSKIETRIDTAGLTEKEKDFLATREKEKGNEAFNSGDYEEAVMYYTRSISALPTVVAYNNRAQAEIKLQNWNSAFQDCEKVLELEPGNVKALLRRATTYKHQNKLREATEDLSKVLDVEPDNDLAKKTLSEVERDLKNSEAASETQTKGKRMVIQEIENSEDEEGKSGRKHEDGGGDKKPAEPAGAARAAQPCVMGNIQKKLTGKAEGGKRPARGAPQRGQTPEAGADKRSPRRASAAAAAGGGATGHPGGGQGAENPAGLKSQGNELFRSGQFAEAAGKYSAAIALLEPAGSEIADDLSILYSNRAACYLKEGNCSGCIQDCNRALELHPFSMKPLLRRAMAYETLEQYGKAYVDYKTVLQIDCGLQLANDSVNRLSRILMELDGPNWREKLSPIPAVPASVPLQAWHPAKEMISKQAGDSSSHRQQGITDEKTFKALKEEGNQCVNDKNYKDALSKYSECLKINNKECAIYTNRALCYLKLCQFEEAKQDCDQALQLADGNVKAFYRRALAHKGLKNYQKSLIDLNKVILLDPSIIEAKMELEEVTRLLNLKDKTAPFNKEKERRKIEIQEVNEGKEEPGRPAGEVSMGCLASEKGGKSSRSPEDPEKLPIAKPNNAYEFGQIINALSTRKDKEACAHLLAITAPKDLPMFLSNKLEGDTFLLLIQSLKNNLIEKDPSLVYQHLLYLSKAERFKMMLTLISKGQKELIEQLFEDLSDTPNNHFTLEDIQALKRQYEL
UniProt P53794: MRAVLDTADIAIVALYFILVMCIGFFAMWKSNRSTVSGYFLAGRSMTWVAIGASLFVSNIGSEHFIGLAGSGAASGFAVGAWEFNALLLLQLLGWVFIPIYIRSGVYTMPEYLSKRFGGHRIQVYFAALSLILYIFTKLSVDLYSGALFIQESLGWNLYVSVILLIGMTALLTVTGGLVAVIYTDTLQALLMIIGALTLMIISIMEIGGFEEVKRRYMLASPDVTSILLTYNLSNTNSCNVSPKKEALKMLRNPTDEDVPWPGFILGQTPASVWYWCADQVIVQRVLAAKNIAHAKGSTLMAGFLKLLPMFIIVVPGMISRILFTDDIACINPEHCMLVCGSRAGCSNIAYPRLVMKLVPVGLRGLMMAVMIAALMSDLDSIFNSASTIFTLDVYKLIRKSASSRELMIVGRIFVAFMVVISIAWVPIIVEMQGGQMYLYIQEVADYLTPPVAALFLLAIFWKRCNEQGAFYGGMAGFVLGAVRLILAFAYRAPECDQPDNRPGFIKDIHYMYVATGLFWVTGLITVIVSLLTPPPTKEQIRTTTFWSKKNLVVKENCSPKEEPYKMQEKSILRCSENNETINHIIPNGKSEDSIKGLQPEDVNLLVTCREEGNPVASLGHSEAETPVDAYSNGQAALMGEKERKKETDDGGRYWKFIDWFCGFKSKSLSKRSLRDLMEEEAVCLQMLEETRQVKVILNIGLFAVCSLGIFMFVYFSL
UniProt Q96R06, 1088-1112: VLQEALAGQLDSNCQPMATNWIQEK
UniProt Q15758, 11-42: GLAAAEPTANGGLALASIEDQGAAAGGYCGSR
UniProt P57768, 54-74: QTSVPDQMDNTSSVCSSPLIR
UniProt O95347, whole entry, looked up: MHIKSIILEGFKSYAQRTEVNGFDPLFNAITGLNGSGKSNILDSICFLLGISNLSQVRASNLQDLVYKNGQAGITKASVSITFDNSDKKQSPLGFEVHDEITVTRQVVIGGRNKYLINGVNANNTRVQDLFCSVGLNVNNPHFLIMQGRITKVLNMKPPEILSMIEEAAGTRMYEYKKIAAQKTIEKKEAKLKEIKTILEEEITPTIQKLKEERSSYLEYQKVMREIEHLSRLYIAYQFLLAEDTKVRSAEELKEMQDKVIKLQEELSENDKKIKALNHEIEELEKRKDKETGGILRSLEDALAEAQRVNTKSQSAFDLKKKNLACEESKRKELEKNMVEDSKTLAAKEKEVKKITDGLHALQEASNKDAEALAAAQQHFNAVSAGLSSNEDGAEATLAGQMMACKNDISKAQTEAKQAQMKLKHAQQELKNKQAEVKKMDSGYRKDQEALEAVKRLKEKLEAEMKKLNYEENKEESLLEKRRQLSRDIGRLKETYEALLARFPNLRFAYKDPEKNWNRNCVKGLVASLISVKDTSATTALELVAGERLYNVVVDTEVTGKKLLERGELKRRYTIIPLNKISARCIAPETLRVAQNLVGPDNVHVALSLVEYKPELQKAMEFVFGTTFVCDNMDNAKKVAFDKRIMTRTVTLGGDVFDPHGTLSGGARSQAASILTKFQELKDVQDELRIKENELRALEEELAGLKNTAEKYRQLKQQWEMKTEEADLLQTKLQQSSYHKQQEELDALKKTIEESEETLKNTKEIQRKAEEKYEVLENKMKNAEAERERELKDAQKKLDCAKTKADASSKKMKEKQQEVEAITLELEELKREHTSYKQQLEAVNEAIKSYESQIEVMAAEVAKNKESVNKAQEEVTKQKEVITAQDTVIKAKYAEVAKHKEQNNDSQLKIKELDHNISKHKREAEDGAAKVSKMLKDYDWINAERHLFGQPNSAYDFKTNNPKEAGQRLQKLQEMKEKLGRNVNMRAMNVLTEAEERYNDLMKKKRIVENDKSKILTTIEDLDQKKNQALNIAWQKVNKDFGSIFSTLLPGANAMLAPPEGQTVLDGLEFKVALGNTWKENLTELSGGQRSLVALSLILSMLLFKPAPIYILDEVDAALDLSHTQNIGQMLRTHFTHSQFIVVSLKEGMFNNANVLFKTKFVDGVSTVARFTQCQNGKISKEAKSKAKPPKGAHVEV
UniProt P35610, 84-104: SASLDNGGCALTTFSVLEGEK
UniProt Q8TEV9, 511-534: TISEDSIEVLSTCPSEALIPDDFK
UniProt Q9H936: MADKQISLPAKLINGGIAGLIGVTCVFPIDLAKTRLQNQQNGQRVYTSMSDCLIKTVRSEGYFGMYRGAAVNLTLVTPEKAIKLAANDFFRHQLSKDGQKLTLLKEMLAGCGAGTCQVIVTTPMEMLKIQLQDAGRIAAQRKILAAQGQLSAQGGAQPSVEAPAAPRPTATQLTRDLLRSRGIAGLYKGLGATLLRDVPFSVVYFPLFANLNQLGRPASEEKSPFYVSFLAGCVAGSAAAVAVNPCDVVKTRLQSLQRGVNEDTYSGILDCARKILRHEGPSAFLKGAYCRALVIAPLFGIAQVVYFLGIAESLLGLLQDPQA
UniProt P09486: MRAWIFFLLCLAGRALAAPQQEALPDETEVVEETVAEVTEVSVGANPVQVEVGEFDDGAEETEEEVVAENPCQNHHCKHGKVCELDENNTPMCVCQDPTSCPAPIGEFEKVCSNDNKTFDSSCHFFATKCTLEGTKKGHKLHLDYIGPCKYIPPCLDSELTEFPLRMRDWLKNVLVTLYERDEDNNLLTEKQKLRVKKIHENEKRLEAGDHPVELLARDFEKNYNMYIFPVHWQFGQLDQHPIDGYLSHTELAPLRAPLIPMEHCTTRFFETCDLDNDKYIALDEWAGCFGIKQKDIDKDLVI
UniProt O14508: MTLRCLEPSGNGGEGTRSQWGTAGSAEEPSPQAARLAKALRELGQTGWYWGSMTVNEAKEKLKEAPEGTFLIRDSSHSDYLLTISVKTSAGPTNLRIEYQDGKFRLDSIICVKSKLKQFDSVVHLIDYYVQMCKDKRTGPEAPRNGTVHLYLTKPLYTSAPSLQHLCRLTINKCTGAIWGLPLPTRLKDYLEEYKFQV
UniProt Q9BXS9: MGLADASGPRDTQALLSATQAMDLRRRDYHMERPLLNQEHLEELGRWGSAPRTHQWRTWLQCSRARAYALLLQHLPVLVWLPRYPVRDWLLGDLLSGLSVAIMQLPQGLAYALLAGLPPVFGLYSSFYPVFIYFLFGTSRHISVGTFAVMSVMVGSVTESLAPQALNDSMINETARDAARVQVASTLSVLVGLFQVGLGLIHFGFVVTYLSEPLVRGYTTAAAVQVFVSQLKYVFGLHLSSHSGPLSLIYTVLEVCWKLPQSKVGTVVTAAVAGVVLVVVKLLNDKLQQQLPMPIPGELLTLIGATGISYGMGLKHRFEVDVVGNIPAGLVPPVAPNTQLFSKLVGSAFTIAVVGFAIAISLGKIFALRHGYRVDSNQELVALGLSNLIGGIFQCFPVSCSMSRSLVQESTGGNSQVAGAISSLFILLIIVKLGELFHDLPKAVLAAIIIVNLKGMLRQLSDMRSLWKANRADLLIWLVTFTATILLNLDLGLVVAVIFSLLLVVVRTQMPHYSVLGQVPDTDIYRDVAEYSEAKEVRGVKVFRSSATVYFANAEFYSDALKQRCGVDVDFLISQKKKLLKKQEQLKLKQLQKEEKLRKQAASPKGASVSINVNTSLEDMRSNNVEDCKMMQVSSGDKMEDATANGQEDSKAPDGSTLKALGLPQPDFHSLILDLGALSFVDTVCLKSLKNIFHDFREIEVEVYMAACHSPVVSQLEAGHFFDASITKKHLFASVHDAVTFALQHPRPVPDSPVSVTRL

Assays:
[1] = compound: ClCC(=O)N[C@@H]1CCCc2ccccc12; assay: log2 mean competition ratio of IA-DTB cysteine labelling (DMSO/compound) (log2 ratio); higher = stronger cysteine engagement by compound; settings: treatment time: 4 h, cell line lysate: HEK293T
Method: (§1)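 IA-DTB competitive cysteine chemoproteomics in HEK293T RIPA lysate. Lysates were treated with compound 29 or 30 at 50 or 200 µM for 4 h, then IA-DTB (500 µM, 1 h), trypsin-digested, NeutrAvidin-enriched and analysed by diaPASEF. Competition ratio = intensity DMSO / intensity compound (n=4 treated, n=64 DMSO); binding: mean log2 CR ≥ 1 and p ≤ 0.05 plus QC filters. Target is the cysteine site.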

[2] = compound: ClCC(=O)N[C@H]1CCCc2ccccc12; assay: as above; settings: treatment time: 4 h, cell line lysate: HEK293T
Method: as §1

Target	log2 mean competition ratio ([1]; 50 µM)	log2 mean competition ratio ([1]; 200 µM)	log2 mean competition ratio ([2]; 50 µM)	log2 mean competition ratio ([2]; 200 µM)
SNAPC3 C11 (UniProt Q92966)	-0.0953	0.233	-0.0298	0.156
SMG1 C1448 (UniProt Q96Q15)	0.0131	0.191	-0.396	-0.204
SMCHD1 C1018 (UniProt A6NHR9)	-0.341	-0.246	0.0333	-0.127
SNTA1 C226 (UniProt Q13424)	-0.145	-0.017	-0.307	-0.178
SPAG1 C633 (UniProt Q07617)	-0.363	-0.0259	-0.292	-0.198
SMG7 C537 (UniProt Q92540)	-0.119	-0.171	-0.0881	-0.232
SOGA1 C250 (UniProt O94964)	-0.119	-0.136	0.205	0.137
SMURF2 C47	0.15	-0.0524	0.0512	-0.0564
SMARCA5 C1001 (UniProt O60264)	-0.061	-0.194	-0.239	-0.197
SLC5A3 C575 (UniProt P53794)	-0.0838	0.151	-0.606	0.116
SMCHD1 C458 (UniProt A6NHR9)	-0.281	0.337	-0.419	0.165
SLC4A2 C1215 (UniProt P04920)	-0.228	-0.107	-0.0601	-0.025
SLC25A52;SLC25A51 C166;(C166)	-0.173	0.192	0.00374	0.0177
SMYD3 C266 (UniProt Q9H7B4)	-0.261	-0.132	-0.0247	-0.112
SLC25A13 C565 (UniProt Q9UJS0)	0.133	0.114	0.0315	0.0824
SOX6 C152 (UniProt P35712)	0.0571	0.715	0.155	0.428
SPAG5 C1101 (UniProt Q96R06)	0.108	0.28	0.296	0.527
SLC1A5 C39 (UniProt Q15758)	-0.0249	0.0713	0.454	-0.0764
SLC6A15 C91	0.0582	0.323	-0.3	0.329
SMC1A C1210 (UniProt Q14683)	-0.218	-0.0122	-0.224	-0.0521

Target	log2 mean competition ratio ([1]; 50 µM)	log2 mean competition ratio ([1]; 200 µM)	log2 mean competition ratio ([2]; 50 µM)	log2 mean competition ratio ([2]; 200 µM)
SNX16 C68 (UniProt P57768)	-0.626	0.192	-0.219	0.32
SLC25A10 C181 (UniProt Q9UBX3)	–	–	0.0828	0.138
SLC39A6 C146 (UniProt Q13433)	–	–	0.0679	-0.173
SMC2 C585 (UniProt O95347)	0.146	0.0198	0.246	0.0123
SLX4 C519 (UniProt Q8IY92)	–	–	-0.156	-0.131
SLC25A20 C136 (UniProt O43772)	0.417	0.0912	0.328	-0.011
SNAPC4 C491 (UniProt Q5SXM2)	–	0.353	–	0.704
SOS2 C1255 (UniProt Q07890)	–	–	0.411	-0.211
SMCHD1 C1982 (UniProt A6NHR9)	–	–	-0.349	0.142
SLC27A6 C147 (UniProt Q9Y2P4)	–	–	0.16	0.0613
SMYD4 C296 (UniProt Q8IYR2)	–	–	0.0141	0.0448
SLC6A15 C367	0.147	0.215	-0.376	0.142
SMG5 C109 (UniProt Q9UPR3)	–	–	0.224	0.0844
SOAT1 C92 (UniProt P35610)	-0.0798	-0.0664	0.0602	-0.149
SND1 C152 (UniProt Q7KZF4)	–	–	0.0355	-0.0266
SORL1 C1549 (UniProt Q92673)	-0.217	–	-0.374	–
SLC25A38 C140 (UniProt Q96DW6)	–	0.268	-0.0845	0.0805
SLC25A1 C262 (UniProt P53007)	–	–	0.105	0.188
SLIRP C48 (UniProt Q9GZT3)	0.328	-0.0399	0.0845	-0.062
SMCHD1 C1433 (UniProt A6NHR9)	–	–	-0.716	0.21

Whole records, quoted from the list. Order of values: log2 mean competition ratio ([1]; 50 µM)	log2 mean competition ratio ([1]; 200 µM)	log2 mean competition ratio ([2]; 50 µM)	log2 mean competition ratio ([2]; 200 µM)
SLC25A52;SLC25A51 C166;(C166) in the list: -0.173	0.192	0.00374	0.0177
SMG7 C537 (UniProt Q92540) in the list: -0.119	-0.171	-0.0881	-0.232
SNTA1 C226 (UniProt Q13424) in the list: -0.145	-0.017	-0.307	-0.178
SOAT1 C92 (UniProt P35610) in the list: -0.0798	-0.0664	0.0602	-0.149

Additional records follow:

Target	log2 mean competition ratio ([1]; 50 µM)	log2 mean competition ratio ([1]; 200 µM)	log2 mean competition ratio ([2]; 50 µM)	log2 mean competition ratio ([2]; 200 µM)
SMARCAD1 C462 (UniProt Q9H4L7)	-0.0878	-0.0175	-0.0989	-0.172
SMG1 C3138 (UniProt Q96Q15)	–	–	0.153	0.374
SMURF1 C152	–	–	0.0206	0.245
SMCR8 C523 (UniProt Q8TEV9)	–	–	-0.557	0.00532
SMG5 C174 (UniProt Q9UPR3)	–	-0.382	-0.229	0.0423
SMARCA4 C1359 (UniProt P51532)	–	–	-0.828	0.103
SMC1B C29 (UniProt Q8NDV3)	0.104	-0.104	-0.0229	-0.0314
SLC25A22 C52 (UniProt Q9H936)	0.351	0.193	-0.038	0.17
SLC25A19 C268 (UniProt Q9HC21)	–	–	-0.133	0.0764
SPAG5 C177 (UniProt Q96R06)	–	–	0.0483	0.0108
SMARCAD1 C568 (UniProt Q9H4L7)	–	–	-0.115	-0.0293
SLC25A46 C372 (UniProt Q96AG3)	–	–	-0.00956	-0.0142
SPARC C265 (UniProt P09486)	–	0.499	0.223	–
SOCS2 C5 (UniProt O14508)	-0.105	0.119	-0.25	0.135
SMG8 C72 (UniProt Q8ND04)	-0.0137	-0.16	-0.249	-0.0979
SMAD2 C161 (UniProt Q15796)	–	–	0.297	-0.0205
SLC26A6 C565 (UniProt Q9BXS9)	–	–	-0.393	0.359
SKIV2L C247 (UniProt Q15477)	–	–	0.354	-0.133
